Laboratory results taken from article PMC6081450.
Results are given in words; binding and its absence hold for the method and conditions named. Binding seen in cells or lysates may run through a third protein. Some results given as binding are weak or reduced against the parent protein; the word gives no strength.

Chains of the proteins cited; added tags and fusions are not shown.
UniProt P03372: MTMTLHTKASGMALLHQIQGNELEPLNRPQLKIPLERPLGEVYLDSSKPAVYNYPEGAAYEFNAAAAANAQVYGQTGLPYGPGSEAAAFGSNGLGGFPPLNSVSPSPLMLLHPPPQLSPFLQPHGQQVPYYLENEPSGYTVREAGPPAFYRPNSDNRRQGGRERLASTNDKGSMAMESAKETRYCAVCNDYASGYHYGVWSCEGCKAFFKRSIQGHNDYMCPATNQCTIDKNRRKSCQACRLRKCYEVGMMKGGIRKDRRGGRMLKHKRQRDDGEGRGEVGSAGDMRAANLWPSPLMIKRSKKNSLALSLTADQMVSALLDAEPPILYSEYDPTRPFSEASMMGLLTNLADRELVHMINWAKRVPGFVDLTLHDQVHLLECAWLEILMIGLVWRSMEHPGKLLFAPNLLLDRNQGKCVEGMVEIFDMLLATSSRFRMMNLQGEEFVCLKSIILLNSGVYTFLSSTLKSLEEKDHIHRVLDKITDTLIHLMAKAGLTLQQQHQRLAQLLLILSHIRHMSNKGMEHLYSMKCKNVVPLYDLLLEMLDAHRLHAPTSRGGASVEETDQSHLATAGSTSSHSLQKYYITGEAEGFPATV
UniProt Q15648: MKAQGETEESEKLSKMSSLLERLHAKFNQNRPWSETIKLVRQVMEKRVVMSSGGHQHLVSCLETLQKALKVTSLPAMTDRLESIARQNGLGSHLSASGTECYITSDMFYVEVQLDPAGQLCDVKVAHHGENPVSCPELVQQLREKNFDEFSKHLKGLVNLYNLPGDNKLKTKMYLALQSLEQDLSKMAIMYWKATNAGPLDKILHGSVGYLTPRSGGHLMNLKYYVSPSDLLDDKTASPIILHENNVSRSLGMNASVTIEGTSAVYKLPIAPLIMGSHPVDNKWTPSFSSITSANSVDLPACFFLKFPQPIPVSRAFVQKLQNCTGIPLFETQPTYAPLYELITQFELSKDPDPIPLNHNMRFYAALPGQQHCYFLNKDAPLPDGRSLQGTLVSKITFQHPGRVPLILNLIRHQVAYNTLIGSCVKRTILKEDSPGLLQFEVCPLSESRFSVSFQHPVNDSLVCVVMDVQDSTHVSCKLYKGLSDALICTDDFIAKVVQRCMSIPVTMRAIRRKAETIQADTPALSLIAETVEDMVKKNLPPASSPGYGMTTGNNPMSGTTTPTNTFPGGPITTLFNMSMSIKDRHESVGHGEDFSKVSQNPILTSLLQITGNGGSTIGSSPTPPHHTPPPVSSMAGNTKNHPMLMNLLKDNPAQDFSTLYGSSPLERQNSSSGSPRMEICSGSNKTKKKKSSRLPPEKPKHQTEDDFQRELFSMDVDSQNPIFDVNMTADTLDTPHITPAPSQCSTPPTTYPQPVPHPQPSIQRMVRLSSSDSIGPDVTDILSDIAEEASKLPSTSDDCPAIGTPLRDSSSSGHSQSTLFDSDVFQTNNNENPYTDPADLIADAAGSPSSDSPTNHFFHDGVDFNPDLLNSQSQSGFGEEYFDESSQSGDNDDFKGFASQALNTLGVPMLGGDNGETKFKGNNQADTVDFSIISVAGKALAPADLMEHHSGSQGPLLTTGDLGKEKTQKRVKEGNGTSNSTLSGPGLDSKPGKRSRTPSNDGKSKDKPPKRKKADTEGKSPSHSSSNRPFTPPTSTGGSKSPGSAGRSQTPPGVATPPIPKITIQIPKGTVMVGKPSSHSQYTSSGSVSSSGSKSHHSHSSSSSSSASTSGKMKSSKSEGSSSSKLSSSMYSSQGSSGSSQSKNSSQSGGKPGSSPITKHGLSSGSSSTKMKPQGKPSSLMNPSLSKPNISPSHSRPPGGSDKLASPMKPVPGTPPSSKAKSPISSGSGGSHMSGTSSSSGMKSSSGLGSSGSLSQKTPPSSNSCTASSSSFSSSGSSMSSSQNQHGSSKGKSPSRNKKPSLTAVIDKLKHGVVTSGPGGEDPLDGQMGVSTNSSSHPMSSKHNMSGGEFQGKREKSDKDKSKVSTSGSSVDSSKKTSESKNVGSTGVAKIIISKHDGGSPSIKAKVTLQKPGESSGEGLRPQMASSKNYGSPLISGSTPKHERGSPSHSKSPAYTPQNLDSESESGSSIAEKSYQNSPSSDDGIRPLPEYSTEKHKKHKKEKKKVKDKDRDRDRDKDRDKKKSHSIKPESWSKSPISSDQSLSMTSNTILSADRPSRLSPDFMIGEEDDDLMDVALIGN

Molecular target: estrogen receptor-alpha (ER-α) (human (endogenous in MCF7)) (UniProt P03372)
Assay: co-IP; MCF7 cells starved for estrogen for 3-4 days, then estrogen (0-10 nM) for 45 min; cells crosslinked and lysed in RIPA buffer; ER-α antibody with protein A-sepharose beads for pull down, western blot with MED1-specific antibody

Substance: Mediator complex subunit 1 (MED1) (from UniProt Q15648 1-1581)
- binding: binds
